Values from PubChem BioAssay AID504808 (Drosophila RNAi Screening Center, 2011).
The deposit covers about 21,000 reagents; shown is an unselected part of those that have a named target and a result. Over the whole deposit, 18 (0.084%) were called active. 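Raw counts without plate normalisation, one of two replicates; the ratio scores behind the calls were not deposited.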 Unmarked entries are inactive. Names joined by + are all predicted targets of the reagent. Not stated in the record: the amount of reagent, the time to read-out.

Aim: 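Fly genes required to hold E2F transcription in check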 (primary screen)
Cell system: Drosophila S2 cells
Reagent: long dsRNA against Drosophila genes
Read-out: 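Firefly luciferase driven by E2F sites, normalised to Renilla luciferase on the same minimal promoter, measured by plate reader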
Scale: E2F firefly: higher = more E2F reporter activity; Renilla normaliser: higher = more normaliser reporter signal
Rule for the call: 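Called active if the normalised E2F reporter went up by over 50%; the cutoff is arbitrary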

| gene knocked down | dsRNA | E2F firefly, rep 1 | Renilla normaliser, rep 1 |
| --- | --- | --- | --- |
| htt | DRSC16970 | 1.23e5 | 6467 |
| Wbp2 | DRSC09821 | 79896 | 3108 |
| Hsp60C | DRSC03036 | 1.67e5 | 5652 |
| CG14414 | DRSC19599 | 1.39e5 | 6062 |
| TwdlM | DRSC15810 | 96360 | 5814 |
| Pop4 | DRSC10955 | 93830 | 4137 |
| grp + CG31782 (retired record) | DRSC03541 | 84631 | 3557 |
| CG16719 | DRSC10222 | 67974 | 3353 |
| CG12289 | DRSC09874 | 1.18e5 | 6152 |
| CG44774 | DRSC18342 | 1.10e5 | 6399 |
| Or10a | DRSC20264 | 1.14e5 | 5927 |
| CG4945 | DRSC06904 | 65057 | 2968 |
| Tsf1 | DRSC20296 | 2.42e5 | 7310 |
| sim | DRSC17054 | 1.09e5 | 5155 |
| eEF1alpha2 | DRSC14079 | 81301 | 2179 |
| eEF1alpha2 | DRSC16658 | 1.27e5 | 6858 |
| CG1246 | DRSC08275 | 1.14e5 | 5097 |
| CG9294 | DRSC04537 | 1.06e5 | 4917 |
| pll | DRSC17026 | 1783 | 1076 |
| CG13560 | DRSC04198 | 1.05e5 | 4377 |
| lin-28 | DRSC10261 | 1.08e5 | 4154 |
| CG14480 | DRSC06452 | 1.46e5 | 5114 |
| wat | DRSC14854 | 96581 | 4715 |
| ball | DRSC14145 | 1.29e5 | 5987 |
| CG5850 | DRSC02905 | 79088 | 3393 |
| CG14641 | DRSC12227 | 71190 | 4506 |
| CG32650 | DRSC19899 | 7623 | 764 |
| cmb | DRSC09790 | 1.33e5 | 7672 |
| CG12725 | DRSC19501 | 98494 | 5166 |
| CG15710 | DRSC06581 | 1.38e5 | 4926 |
| S-Lap4 | DRSC10957 | 1.19e5 | 6264 |
| CG4456 + Hsp22 | DRSC11187 | 1.19e5 | 6127 |
| CG4456 + Hsp22 | DRSC11192 | 65628 | 3492 |
| beat-IIb | DRSC13219 | 71447 | 1901 |
| beat-IIb | DRSC14816 | 1.07e5 | 6922 |
| beat-IIb | DRSC15546 | 1.17e5 | 5771 |

No new results follow: 5 of the entries above.
| gene knocked down | dsRNA | E2F firefly, rep 1 | Renilla normaliser, rep 1 |
| --- | --- | --- | --- |
| CG15710 | DRSC06581 | 1.38e5 | 4926 |
| S-Lap4 | DRSC10957 | 1.19e5 | 6264 |
| CG4456 + Hsp22 | DRSC11187 | 1.19e5 | 6127 |
| CG4456 + Hsp22 | DRSC11192 | 65628 | 3492 |
| beat-IIb | DRSC13219 | 71447 | 1901 |
